Measured values published in publication PMC4901263.

Columns and labels:
Assay in all cases: co-IP; HEK293T cells co-transfected with tagged CIDEB and a tagged HCV protein; lysis buffer 50 mM Tris pH 7.4, 150 mM NaCl, 0.5% NP-40, 1.0 mM EDTA; IP with anti-Flag, anti-HA or anti-GFP antibody and protein A/G beads at 4 °C; blot with anti-HA, anti-Flag or anti-NS3
[1] = target: HA-NS5A-∆DIII (hepatitis C virus (strain not stated))
[2] = target: HA-NS5A-∆(DII + DIII) (hepatitis C virus (strain not stated))
[3] = target: HA-NS5A-∆DI (hepatitis C virus (strain not stated))

B1: Flag-CIDEB (in HEK293T cells) (protein, UniProt Q9UHD4 1-219)
chain: MEYLSALNPSDLLRSVSNISSEFGRRVWTSAPPPQRPFRVCDHKRTIRKGLTAATRQELLAKALETLLLNGVLTLVLEEDGTAVDSEDFFQLLEDDTCLMVLQSGQSWSPTRSGVLSYGLGRERPKHSKDIARFTFDVYKQNPRDLFGSLNVKATFYGLYSMSCDFQGLGPKKVLRELLRWTSTLLQGLGHMLLGISSTLRHAVEGAEQWQQKGRLHSY
binding [1]: binds
binding [2]: binds
binding [3]: no binding

Results are given in words; binding and its absence hold for the method and conditions named. Binding seen in cells or lysates may run through a third protein. For part of these data: A result given as binding can be weak or reduced; the word gives no strength. Tags and fused reporters may be left off the sequences shown.
